Reference: patent US6406718B1, “Orthorhombic crystalline form of fluticasone propionate and pharmaceutical compositions thereof” (SmithKline Beecham Corporation, priority 1996, dated 2002)

Assay: Metered dose inhaler drug deposition on can, valve and actuator
Conditions: for Can Deposition at the beginning of use / Total Drug Deposition at the beginning of use / Valve Deposition at the beginning of use / Actuator Deposition at the beginning of use: after actuations 1 & 2; for Can Deposition at the end of use / Total Drug Deposition at the end of use / Valve Deposition at the end of use: after actuations 119 & 120
[1] = Inhaler Type B, listed as sample 22
[2] = Inhaler Type B, listed as sample 21
[3] = Inhaler Type A, listed as sample 18
[4] = Inhaler Type A, listed as sample 20

Substance: fluticasone propionate [Sample 22]
- Can Deposition at the beginning of use [1]: 0.3 mg
- Total Drug Deposition at the beginning of use [1]: 0.5 mg
- Can Deposition at the end of use [1]: 0.3 mg
- Total Drug Deposition at the end of use [1]: 0.5 mg
- Valve Deposition at the end of use [1]: 0.2 mg

Substance: fluticasone propionate [Sample 21]
- Valve Deposition at the beginning of use (Inhaler Type B): 0.2 mg
- Can Deposition at the beginning of use [2]: 0.4 mg
- Total Drug Deposition at the beginning of use [2]: 0.6 mg
- Can Deposition at the end of use [2]: 0.4 mg
- Total Drug Deposition at the end of use [2]: 0.7 mg
- Valve Deposition at the end of use [2]: 0.3 mg

Substance: fluticasone propionate [Sample 18]
- Actuator Deposition at the beginning of use [3]: 12 micrograms
- Can Deposition at the beginning of use [3]: 0.8 mg
- Total Drug Deposition at the beginning of use [3]: 1.3 mg
- Valve Deposition at the beginning of use [3]: 0.5 mg

Substance: fluticasone propionate [Sample 20]
- Actuator Deposition at the beginning of use [4]: 11 micrograms
- Can Deposition at the beginning of use [4]: 0.5 mg
- Total Drug Deposition at the beginning of use [4]: 0.8 mg
- Valve Deposition at the beginning of use [4]: 0.3 mg
